In PubChem BioAssay AID540276 (National Center for Advancing Translational Sciences (NCATS), 2011):
In all, about 300,000 compounds went through this assay and about 5,400 (1.8%) were called active. The inconclusive results got no clear call from the source; some entries with a clear call stand among them for comparison. The call rests on the fitted dose curve; tested in HEK293 cells. Potencies of inconclusive entries are doubtful fits and often do not repeat.

assay: qHTS for inhibitors of binding or entry into cells for Marburg Virus; conditions: Marburg virus pseudotyped entry inhibition, cell reporter; activity change, negative = inhibition: at 37.8 µM (top of the series) unless noted
On the % scale 0 is the no-effect control and ±100 the full control effect; potency means the concentration at half of the fitted maximal effect.

SMILES | Potency | activity change, negative = inhibition
Cc1cc(-c2ccccc2)c2c(=O)[nH][nH]c2n1 | inconclusive: 2.82 µM [inhibitor, partial curve, poor fit] | 
COc1ccc(C(=O)NCCSc2ccccn2)cc1 | inconclusive: 17.8 µM [inhibitor, partial curve, poor fit] | 
CCN1CCCC1CNC(=O)c1cc(S(N)(=O)=O)ccc1OC (stereo unspecified) | inconclusive: 0.562 µM [activator, single point] | 
CCOc1cc(CNc2ccc(O)cc2)cc(Br)c1OCc1ccccc1F |  | inactive: -12.4%
CCSc1nnc2c(n1)OC(C)(C)Nc1ccccc1-2 |  | inactive: 11.8%
Cc1ccc(C2C(C#N)=C(N)Oc3c2oc(CO)cc3=O)o1 (stereo unspecified) |  | inactive: 3.34%
Oc1ccccc1C1NCc2ccccc2-n2cccc21 (stereo unspecified) | inconclusive: 12.6 µM [inhibitor, partial curve, poor fit] | 
Cc1cc(Cl)ccc1NC(=O)CSc1nnc(-c2ccncc2)n1Cc1ccco1 |  | inactive: -10.4%
CCS(=O)(=O)NCCNc1ccc([N+](=O)[O-])cc1 | inconclusive: 6.31 µM [activator, single point] | 
Fc1cccc2sc(N3CCOCC3)nc12 | inconclusive: 7.3 µM [activator, full curve, poor fit] | 
C/C(N)=C(/C#N)C(=O)COC(=O)CNC(=O)c1ccc(Cl)cc1Cl |  | inactive: 4.17% [at 46.1 µM]
O=C(Cn1ncc2c(Cl)cccc21)NCc1cccc(Br)c1 |  | inactive: 1.68% [at 46.1 µM]
C/C(=N\NC(=O)c1cc(C2CC2)nc2ccccc12)c1ccc(C)s1 | inconclusive: 14.1 µM [inhibitor, single point] | 
Cc1ccc(Cn2c(CCCNC(=O)C3CCCCC3)nc3ccccc32)cc1 | inconclusive: 17.8 µM [inhibitor, single point] | 
CCCC(=O)OCCNc1cc(Sc2nc3ccccc3[nH]2)c2nonc2c1[N+](=O)[O-] | inconclusive: 29.1 µM [inhibitor, single point] | 
CCSc1ccc2cc(OC)ccc2[n+]1CC |  | inactive: -23.3% [at 46.1 µM]
Cc1cc(C(C)(C)C)cc(C)c1Cn1c2[n+](c3ccc(C(F)(F)F)cc31)CCCCC2 | inconclusive: 35.5 µM [inhibitor, single point] | 
CC1CCN(C(=O)c2ccc(S(=O)(=O)Cc3ccccc3F)c([N+](=O)[O-])c2)CC1 | inconclusive: 35.5 µM [inhibitor, single point] | 
CSCCC(=O)N1CCCC(CO)(CCCc2ccccc2)C1 (stereo unspecified) |  | inactive: 1.89% [at 46.1 µM]
COc1cc(C2C(C(=O)Nc3ccccc3)=C(C)Nc3nc(SCc4ccccc4F)nn32)cc(OC)c1OC (stereo unspecified) | inconclusive: 35.5 µM [inhibitor, single point] | 
CCOC(=O)c1cccc(NC(=O)Nc2ccc(OCC)cc2)c1 | inconclusive: 23.1 µM [inhibitor, single point] | 
Cc1ccc(CN2CCN(Cc3cnn(-c4ccc(Cl)cc4)c3)CC2CCO)o1 (stereo unspecified) | inconclusive: 39.8 µM [inhibitor, partial curve, poor fit] | 
CCCCCCC1CCC(C(=O)NC(CCSC)C(=O)NC(C(=O)OC)C(C)C)CC1 (stereo unspecified) | inconclusive: 2.06 µM [inhibitor, partial curve, poor fit] | 

Of the compounds above, 3 have a nitro group on carbon.
SMILES | Potency | activity change, negative = inhibition
CCS(=O)(=O)NCCNc1ccc([N+](=O)[O-])cc1 | inconclusive: 6.31 µM [activator, single point] | 
CCCC(=O)OCCNc1cc(Sc2nc3ccccc3[nH]2)c2nonc2c1[N+](=O)[O-] | inconclusive: 29.1 µM [inhibitor, single point] | 
CC1CCN(C(=O)c2ccc(S(=O)(=O)Cc3ccccc3F)c([N+](=O)[O-])c2)CC1 | inconclusive: 35.5 µM [inhibitor, single point] | 

Continuation.

SMILES | Potency | activity change, negative = inhibition
Cc1sc2c(c1C)c(=O)n(-c1ccc(Cl)cc1)c(=O)n2Cc1c(F)cccc1Cl |  | inactive: -22.4% [at 46.1 µM]
CCCOc1ccccc1NC(=O)/C=C/C(N)=O |  | inactive: -22%
CCOc1ccccc1NS(=O)(=O)c1ccc2c(c1)n(C)c(=O)c(=O)n2C | inconclusive: 3.16 µM [inhibitor, single point] | 
COc1ccc(-c2nc3c(s2)CN(S(C)(=O)=O)CC3)cc1OC | inconclusive: 35.5 µM [activator, single point] | 
Cc1ccc(S(=O)(=O)n2nc(-c3ccc(Cl)cc3)nc2NCc2ccco2)cc1 | inconclusive: 25.9 µM [inhibitor, partial curve, poor fit] | 
CC(=O)c1c(C)[nH]c(C(=O)COC(=O)C2CC2)c1C |  | inactive: 18.3% [at 46.1 µM]
CCOc1cc2c(cc1OCC)C(c1c(F)cccc1Cl)CC(=O)N2 (stereo unspecified) |  | inactive: 8.88% [at 46.1 µM]
COc1ccc(CCNC(=O)CCNC(=O)c2ccco2)cc1 | inconclusive: 14.1 µM [inhibitor, single point] | 
Cc1ccc(C(=O)Nc2ccc(C)c(S(=O)(=O)N(C)C)c2)s1 | inconclusive: 2.91 µM [activator, single point] | 
Cn1c(O)c(C=NC2CCN(Cc3ccccc3)CC2)c(=O)n(C)c1=O | inactive | 
CC(=O)Nc1ccc(S(=O)(=O)N2CCN(C(=O)C3COc4ccccc4O3)CC2)cc1 (stereo unspecified) | inconclusive: 20 µM [inhibitor, single point] | 
O=C(Nc1ccccc1Cl)Nc1cccnc1Cl |  | inactive: -17.6% [at 46.1 µM]
Cc1ccc(Cc2nnc(SCC(=O)Nc3ccccc3C)[nH]c2=O)cc1 | inconclusive: 3.16 µM [activator, partial curve, poor fit] | 
C/C(CC(=O)Nc1ccccn1)=N\NC(=O)C(=O)Nc1cccc(C)c1 |  | inactive: -18.6%
CCCS(=O)(=O)N1CCCC(C(=O)NC2CCCC(C)C2C)C1 (stereo unspecified) |  | inactive: 0.71%
S=c1[nH]nc(-c2ccco2)n1/N=C/c1cccc(Cl)c1 | inconclusive: 11.2 µM [activator, partial curve] | 
CCc1ccccc1NC(=O)CSc1nc2c(oc3ccccc32)c(=O)n1-c1ccccc1F | inconclusive: 20 µM [inhibitor, single point] | 
Cc1ccc(C2C(C(=O)c3sc(-c4ccccc4)nc3C)=C(O)C(=O)N2CCN(C)C)o1 (stereo unspecified) | inconclusive: 3.55 µM [inhibitor, single point] | 
Nc1nccnc1C(=O)OCC(=O)NCCc1ccc(S(N)(=O)=O)cc1 |  | inconclusive: 7.2% [activator]
COc1ccccc1OCCn1nnc2ccccc21 |  | inactive: 14.4%
O=C1N=C(N2CCCCC2)S/C1=C\c1ccccc1F | inconclusive: 1.26 µM [activator, single point] | 
CCOc1cccc(C(=O)Nc2ccc(NC(=O)c3cc4ccccc4o3)c(OC)c2)c1 | inconclusive: 1.26 µM [inhibitor, single point] | 
CN(C)c1ccnc(Oc2ccc(C(C)(C)C)cc2)c1C#N | inconclusive: 14.6 µM [inhibitor, single point] | 
